# Results taken from publication PMC10402268.
# By UniProt entry, the sequences of proteins in these tests, tags left out. Where a name states a change or a piece, a line headed by the entry shows the natural chain unless it says otherwise.
# UniProt P31695: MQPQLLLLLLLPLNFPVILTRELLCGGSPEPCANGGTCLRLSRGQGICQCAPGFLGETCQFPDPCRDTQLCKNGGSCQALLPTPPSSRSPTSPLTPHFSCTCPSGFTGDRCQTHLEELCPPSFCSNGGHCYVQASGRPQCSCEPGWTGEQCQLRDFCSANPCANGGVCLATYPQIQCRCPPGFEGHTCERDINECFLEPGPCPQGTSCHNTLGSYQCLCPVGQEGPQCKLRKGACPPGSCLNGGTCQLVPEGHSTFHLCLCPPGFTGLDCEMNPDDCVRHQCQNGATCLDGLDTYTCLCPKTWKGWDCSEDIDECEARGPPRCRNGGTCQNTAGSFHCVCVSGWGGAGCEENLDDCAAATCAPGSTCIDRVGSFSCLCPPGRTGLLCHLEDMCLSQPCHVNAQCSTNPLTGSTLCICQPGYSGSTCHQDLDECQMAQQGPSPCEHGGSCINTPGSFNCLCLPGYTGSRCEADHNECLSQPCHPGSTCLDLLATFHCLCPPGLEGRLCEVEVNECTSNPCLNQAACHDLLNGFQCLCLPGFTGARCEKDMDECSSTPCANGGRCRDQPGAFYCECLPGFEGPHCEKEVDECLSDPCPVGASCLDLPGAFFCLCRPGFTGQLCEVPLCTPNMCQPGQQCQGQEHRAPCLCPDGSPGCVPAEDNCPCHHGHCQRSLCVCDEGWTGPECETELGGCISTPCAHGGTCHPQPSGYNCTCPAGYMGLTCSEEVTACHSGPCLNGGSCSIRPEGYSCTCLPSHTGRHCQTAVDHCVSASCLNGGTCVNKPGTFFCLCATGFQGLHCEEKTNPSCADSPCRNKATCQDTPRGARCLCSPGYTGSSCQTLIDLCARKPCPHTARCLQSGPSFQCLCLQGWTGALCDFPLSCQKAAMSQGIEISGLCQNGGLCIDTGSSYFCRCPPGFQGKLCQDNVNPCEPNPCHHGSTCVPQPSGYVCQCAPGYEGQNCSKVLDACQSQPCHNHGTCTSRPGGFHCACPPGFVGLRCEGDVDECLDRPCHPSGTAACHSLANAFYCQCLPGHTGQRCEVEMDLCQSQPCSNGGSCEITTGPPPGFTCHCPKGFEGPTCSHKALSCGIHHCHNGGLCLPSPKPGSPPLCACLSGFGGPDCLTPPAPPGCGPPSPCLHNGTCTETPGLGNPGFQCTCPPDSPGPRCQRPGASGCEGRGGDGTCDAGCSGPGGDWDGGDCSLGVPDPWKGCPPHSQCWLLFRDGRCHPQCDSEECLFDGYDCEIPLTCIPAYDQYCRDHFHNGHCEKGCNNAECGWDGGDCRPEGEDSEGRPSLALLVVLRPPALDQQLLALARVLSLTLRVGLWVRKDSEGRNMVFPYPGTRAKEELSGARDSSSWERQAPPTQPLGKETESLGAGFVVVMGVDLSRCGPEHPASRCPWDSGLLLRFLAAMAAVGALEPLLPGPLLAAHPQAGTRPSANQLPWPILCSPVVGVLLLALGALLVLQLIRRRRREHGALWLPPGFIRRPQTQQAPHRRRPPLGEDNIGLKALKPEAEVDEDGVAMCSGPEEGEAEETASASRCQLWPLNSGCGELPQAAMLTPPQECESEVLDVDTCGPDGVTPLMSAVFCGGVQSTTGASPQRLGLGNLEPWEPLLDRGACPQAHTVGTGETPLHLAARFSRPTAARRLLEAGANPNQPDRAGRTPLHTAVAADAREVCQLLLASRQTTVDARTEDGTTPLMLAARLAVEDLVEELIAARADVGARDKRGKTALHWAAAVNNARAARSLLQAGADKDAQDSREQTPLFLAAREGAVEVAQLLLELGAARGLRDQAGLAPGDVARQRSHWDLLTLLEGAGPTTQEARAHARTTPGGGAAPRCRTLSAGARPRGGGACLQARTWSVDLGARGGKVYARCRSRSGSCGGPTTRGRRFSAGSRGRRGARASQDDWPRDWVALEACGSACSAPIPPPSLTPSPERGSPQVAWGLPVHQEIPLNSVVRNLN
# UniProt Q01705: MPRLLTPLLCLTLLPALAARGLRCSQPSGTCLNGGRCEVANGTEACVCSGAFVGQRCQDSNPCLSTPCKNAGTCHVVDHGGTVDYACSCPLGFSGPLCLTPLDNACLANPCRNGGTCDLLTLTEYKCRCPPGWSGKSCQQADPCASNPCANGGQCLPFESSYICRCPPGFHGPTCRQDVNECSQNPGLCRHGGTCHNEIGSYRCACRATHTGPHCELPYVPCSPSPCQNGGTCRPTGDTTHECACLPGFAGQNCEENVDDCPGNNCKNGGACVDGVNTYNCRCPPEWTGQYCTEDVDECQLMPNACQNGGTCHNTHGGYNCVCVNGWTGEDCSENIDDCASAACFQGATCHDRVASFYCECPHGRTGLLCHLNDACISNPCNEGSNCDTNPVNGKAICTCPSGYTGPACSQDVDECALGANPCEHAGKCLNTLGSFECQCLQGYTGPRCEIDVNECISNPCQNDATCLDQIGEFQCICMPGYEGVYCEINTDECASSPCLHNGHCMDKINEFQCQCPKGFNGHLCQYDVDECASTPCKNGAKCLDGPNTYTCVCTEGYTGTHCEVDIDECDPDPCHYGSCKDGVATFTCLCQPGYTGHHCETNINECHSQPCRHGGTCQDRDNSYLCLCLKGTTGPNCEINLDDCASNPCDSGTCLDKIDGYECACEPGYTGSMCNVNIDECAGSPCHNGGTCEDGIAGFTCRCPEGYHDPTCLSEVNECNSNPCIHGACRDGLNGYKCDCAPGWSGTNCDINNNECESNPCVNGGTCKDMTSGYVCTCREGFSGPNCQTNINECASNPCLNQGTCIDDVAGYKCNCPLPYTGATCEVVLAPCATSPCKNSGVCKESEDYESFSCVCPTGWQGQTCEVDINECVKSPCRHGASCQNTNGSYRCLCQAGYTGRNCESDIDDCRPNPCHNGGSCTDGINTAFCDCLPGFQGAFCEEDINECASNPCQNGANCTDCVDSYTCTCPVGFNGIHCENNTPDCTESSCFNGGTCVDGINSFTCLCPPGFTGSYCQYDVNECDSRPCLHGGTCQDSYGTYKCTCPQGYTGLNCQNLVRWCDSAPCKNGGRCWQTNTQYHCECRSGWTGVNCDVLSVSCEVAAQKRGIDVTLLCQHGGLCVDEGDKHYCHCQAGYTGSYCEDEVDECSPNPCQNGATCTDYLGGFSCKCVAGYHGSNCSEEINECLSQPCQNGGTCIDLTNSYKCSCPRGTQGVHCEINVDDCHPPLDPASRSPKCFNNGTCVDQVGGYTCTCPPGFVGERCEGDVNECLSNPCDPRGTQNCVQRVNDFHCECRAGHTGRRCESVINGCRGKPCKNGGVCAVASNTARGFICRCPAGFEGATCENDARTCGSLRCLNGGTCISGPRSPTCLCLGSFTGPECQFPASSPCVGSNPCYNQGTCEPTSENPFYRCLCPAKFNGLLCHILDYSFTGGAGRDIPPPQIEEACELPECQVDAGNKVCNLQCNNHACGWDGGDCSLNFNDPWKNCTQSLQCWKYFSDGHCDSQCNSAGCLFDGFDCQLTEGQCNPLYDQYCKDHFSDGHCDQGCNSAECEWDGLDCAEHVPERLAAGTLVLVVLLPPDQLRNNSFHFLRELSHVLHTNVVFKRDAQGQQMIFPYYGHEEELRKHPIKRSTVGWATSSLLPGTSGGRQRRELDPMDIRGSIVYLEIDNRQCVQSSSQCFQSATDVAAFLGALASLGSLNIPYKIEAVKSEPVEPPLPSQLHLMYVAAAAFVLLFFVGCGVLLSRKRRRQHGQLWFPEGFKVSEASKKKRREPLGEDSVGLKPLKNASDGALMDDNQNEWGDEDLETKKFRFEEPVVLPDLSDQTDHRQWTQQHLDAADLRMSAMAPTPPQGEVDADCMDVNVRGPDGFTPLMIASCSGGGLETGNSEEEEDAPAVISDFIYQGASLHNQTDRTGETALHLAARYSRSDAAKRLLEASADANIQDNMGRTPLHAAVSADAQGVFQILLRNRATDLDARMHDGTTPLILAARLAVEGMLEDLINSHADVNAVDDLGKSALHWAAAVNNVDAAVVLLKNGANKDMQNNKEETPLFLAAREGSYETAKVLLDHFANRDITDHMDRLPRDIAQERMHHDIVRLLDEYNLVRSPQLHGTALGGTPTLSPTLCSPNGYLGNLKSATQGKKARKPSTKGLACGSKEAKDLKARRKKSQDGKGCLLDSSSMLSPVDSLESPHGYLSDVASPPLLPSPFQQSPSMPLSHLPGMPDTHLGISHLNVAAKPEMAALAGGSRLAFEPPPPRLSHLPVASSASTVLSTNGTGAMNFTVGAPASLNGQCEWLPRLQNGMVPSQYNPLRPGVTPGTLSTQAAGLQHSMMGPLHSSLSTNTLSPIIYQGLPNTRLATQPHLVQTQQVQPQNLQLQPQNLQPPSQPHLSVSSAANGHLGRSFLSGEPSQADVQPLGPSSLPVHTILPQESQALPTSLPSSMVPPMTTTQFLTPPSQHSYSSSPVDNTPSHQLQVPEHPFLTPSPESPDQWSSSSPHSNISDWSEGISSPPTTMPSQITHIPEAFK
# No constants are given. Whether binding was seen depends on the method and setting. In cells and extracts the contact can be indirect. Binding can be weak; no strength is given.
# Assays:
# Assay in all cases: co-IP; 293T cells co-transfected with one FLAG-tagged and one HA- or MYC-tagged NICD; lysates 48 h after transfection; anti-FLAG resin; western blot with anti-HA or anti-MYC
# [1] = molecular target: Notch3 intracellular domain (N3ICD), mouse (mouse) (UniProt Q61982)
# [2] = molecular target: Notch4 intracellular domain (N4ICD), mouse (mouse) (UniProt P31695)
# [3] = molecular target: Notch2 intracellular domain (N2ICD), mouse (mouse) (UniProt O35516)
# [4] = molecular target: N1ICD lacking the C-terminus (RAM/Ank), FLAG-tagged (mouse) (UniProt Q01705)
# [5] = molecular target: isolated N1ICD ankyrin domain (Ank), FLAG-tagged (mouse) (UniProt Q01705)
Substance,binding [1],binding [2],binding [3],binding [4],binding [5]
"Notch2 intracellular domain (N2ICD), mouse (from UniProt O35516) (domain or fragment)",binds weakly,binds,–,–,–
"Notch3 intracellular domain (N3ICD), mouse (from UniProt Q61982) (domain or fragment)",–,binds,binds,–,–
"Notch1 intracellular domain (N1ICD), mouse (from UniProt Q01705) (domain or fragment)",–,binds,–,–,–
"Notch4 intracellular domain (N4ICD), mouse (from UniProt P31695) (domain or fragment)",binds,–,binds,binds,binds
